Laboratory results taken from publication PMC12351161.
For at least one entry, the source does not settle the construct or the ends of the probe. For some assays here: The comparison behind a weaker result is the experiment's own reference, which may not be listed here. For some assays here: At least one verdict was read from the data and is not stated in words by the source.

How the values were obtained:
[1] = tested on: MBP-OsERF120; assay: EMSA; details: LightShift Chemiluminescent EMSA Kit (Thermo 20148); binding buffer, pH and temperature not stated; annealing in 100 mM NaCl, 1 mM EDTA, 10 mM Tris-HCl pH 7.5; recombinant protein; protein details: N-terminal MBP (pMAL-C4X); label: 5' biotin
[2] = tested on: MBP-OsERF120; assay: competition with a labelled probe; details: unlabeled competitor at 20x, 40x, 80x, signal gradually decreased; LightShift Chemiluminescent EMSA Kit (Thermo 20148); binding buffer, pH and temperature not stated; annealing in 100 mM NaCl, 1 mM EDTA, 10 mM Tris-HCl pH 7.5; recombinant protein; protein details: N-terminal MBP (pMAL-C4X)

Sequence: TGATTAATTAGAAAGAACTTAATTAGTAG (double strand) [mutant probe 3]
- binding result [1]: binds more weakly

Sequence: TGATTAATTAGAAAGACCTTAATTAGTAG (double strand) [mutant probe 2]
- binding result [1]: binds more weakly

Sequence: TGATTAATTAGAACGACCTTAATTAGTAG (double strand) [mutant probe 1]
- binding result [1]: binds more weakly

Sequence: TGATTAATTAGACCGACCTTAATTAGTAG (double strand) [OsMST6 promoter probe]
- binding result [1]: binds

Sequence: TGATTAATTAGACCGACCTTAATTAGTAG (double strand) [unlabeled competitor probe]
- binding result [2]: binds
